PubChem BioAssay AID1259261, Sanger Institute, 2017
Purpose: 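Kinase knock-downs that kill colorectal cancer cells or boost targeted drugs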 (primary screen). Cells: HCC2998 human colorectal cancer cells. Knock-down reagent: siRNA pool against human genes. Challenge: anchor drugs BYL719 1 µM, cetuximab 5 µg/ml or trametinib 10 nM, each compared with DMSO vehicle. Measured: 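Viability as fraction of non-targeting control plus robust z-score without drug; synergy scores compare knock-down plus drug against each alone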. Scale: viability z-score, knock-down alone: higher = more viable cells than controls. Rule for the call: 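Essential when the siRNA-alone viability robust z-score is below -3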. Meaning of the calls: active = essential; inactive = no change.
The deposit covers 794 reagents; shown is a part drawn at random. Of all reagents, 10 (1.3%) got an active call. 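Calls reflect knock-down alone without drug; synergy scores with BYL719, cetuximab or trametinib do not affect calls.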 Not all columns of the deposit are shown. Not given: the amount of reagent, the time to read-out.

Target gene	viability z-score, knock-down alone	Call
ABL2 (ABL proto-oncogene 2, non-receptor tyrosine kinase)	0.198	inactive
MAP3K12 (mitogen-activated protein kinase kinase kinase 12)	0.436	inactive
TSSK1B (testis specific serine kinase 1B)	-0.229	inactive
OXSR1 (oxidative stress responsive kinase 1)	-0.18	inactive
NR4A2 (nuclear receptor subfamily 4 group A member 2)	-1.27	inactive
PHKG2 (phosphorylase kinase catalytic subunit gamma 2)	-0.0797	inactive
N4BP2 (NEDD4 binding protein 2)	-0.884	inactive
MYO3B (myosin IIIB)	-1.69	inactive
STK16 (serine/threonine kinase 16)	0.607	inactive
NME6 (NME/NM23 nucleoside diphosphate kinase 6)	-0.0752	inactive
STK3 (serine/threonine kinase 3)	-0.578	inactive
GSK3A (glycogen synthase kinase 3 alpha)	-0.847	inactive
SIK2 (salt inducible kinase 2)	0.91	inactive
PKLR (pyruvate kinase L/R)	-1.78	inactive
NEK8 (NIMA related kinase 8)	-0.669	inactive
ERN1 (endoplasmic reticulum to nucleus signaling 1)	0.285	inactive
TCF12 (transcription factor 12)	-0.115	inactive
BCKDK (branched chain keto acid dehydrogenase kinase)	1.21	inactive
RSKR (ribosomal protein S6 kinase related)	0.779	inactive
EPHA3 (EPH receptor A3)	0.0517	inactive
PRKAG1 (protein kinase AMP-activated non-catalytic subunit gamma 1)	0.442	inactive
PIK3C2B	1.04	inactive
LMTK1 (lemur tail kinase 1)	-0.203	inactive
BRSK2 (BR serine/threonine kinase 2)	1.18	inactive
PAK5 (p21 (RAC1) activated kinase 5)	-2.09	inactive
CLK4 (CDC like kinase 4)	0.697	inactive
GRK5 (G protein-coupled receptor kinase 5)	1.21	inactive
EPHB4 (EPH receptor B4)	-1.48	inactive
PRKCE (protein kinase C epsilon)	-0.378	inactive
KDR (kinase insert domain receptor)	1.21	inactive
PTGS1 (prostaglandin-endoperoxide synthase 1)	-0.00608	inactive
PCK1 (phosphoenolpyruvate carboxykinase 1)	0.377	inactive
PSKH2 (protein serine kinase H2)	0.0191	inactive
TRPM6	1.21	inactive

Look-ups from above:
Entry of TRPM6 in “Call”: inactive
KDR (kinase insert domain receptor), Call → inactive
ERN1 (endoplasmic reticulum to nucleus signaling 1), viability z-score, knock-down alone → 0.285
